The source of these data is paper PMC3778450, “Agonists and antagonists induce different palonosetron dissociation rates in 5-HT3A and 5-HT3AB receptors^” (Neuropharmacology, 2013).

Sequences of proteins named here, by UniProt entry; tags and fusion partners are left off. Residues count along the entry.
UniProt P46098, 24-478 limits assumed: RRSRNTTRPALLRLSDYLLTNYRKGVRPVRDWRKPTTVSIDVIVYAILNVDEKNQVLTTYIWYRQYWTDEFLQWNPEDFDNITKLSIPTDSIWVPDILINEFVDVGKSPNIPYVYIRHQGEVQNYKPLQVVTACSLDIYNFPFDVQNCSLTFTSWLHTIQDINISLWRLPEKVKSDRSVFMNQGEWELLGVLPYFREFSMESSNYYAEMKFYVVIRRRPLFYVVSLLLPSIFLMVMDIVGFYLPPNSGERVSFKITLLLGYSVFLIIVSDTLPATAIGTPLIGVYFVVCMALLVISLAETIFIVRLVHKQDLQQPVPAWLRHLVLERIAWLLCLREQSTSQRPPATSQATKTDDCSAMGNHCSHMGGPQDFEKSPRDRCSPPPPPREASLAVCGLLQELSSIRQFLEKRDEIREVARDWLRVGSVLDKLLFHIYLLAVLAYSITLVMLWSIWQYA
UniProt O95264, 22-441 partner limits assumed: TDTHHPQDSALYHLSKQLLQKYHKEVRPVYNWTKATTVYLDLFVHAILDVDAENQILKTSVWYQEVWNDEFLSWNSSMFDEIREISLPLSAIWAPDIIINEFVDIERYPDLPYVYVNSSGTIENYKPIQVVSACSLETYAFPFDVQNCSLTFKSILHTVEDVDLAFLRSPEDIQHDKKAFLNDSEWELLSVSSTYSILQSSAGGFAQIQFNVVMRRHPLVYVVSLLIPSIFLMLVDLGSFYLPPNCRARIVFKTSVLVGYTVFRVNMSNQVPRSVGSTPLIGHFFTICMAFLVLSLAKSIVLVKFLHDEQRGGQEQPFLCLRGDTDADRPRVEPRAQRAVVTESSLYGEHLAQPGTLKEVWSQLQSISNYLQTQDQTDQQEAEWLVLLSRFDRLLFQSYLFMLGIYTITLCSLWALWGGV

For part of its entries the source gives two or more results. This is not the full list of results. There may be further records. The records of an entry differ, and nothing given here explains why; they may come from other doses, times, organisms or constructs than stated.

One assay has as its target 5-HT3AB receptors (Homo sapiens, UniProt P46098). The experiment in a line: Radioligand association and dissociation kinetics, HEK293 membranes. Conditions: tested as the radiolabelled form. It is filed as binding.
The target of the next assay is 5-HT3A receptors (Homo sapiens, UniProt P46098). The description is as above. It is filed as binding. As to conditions: tested as the radiolabelled form.

As to `O=C1c2cccc3c2[C@H](CCC3)CN1[C@@H]1CN2CCC1CC2`, the “time to complete association (maximal levels)” value is 30 min and ≤ 30 min at 5-HT3AB receptors; 30 min and ≤ 30 min on 5-HT3A receptors.
